Assay results taken from PubChem BioAssay AID188 (DTP/NCI, 2004).
Shown are survivors of the treated group in tumour-free mice. Survivors were counted at the toxicity check, usually on the fifth day, unless a day is given; later deaths do not show. Schedule codes are those of the source, read here as Q, the interval in days (D) or hours (H), X, the number of doses.

Test system: CD2F1 mice, nontumored, toxicity/survival
Experiment: NCI In Vivo Anticancer Drug Screen. Data for tumor model Nontumored Animals (Toxicity Test) in CD2F1 (CDF1) mice

c1cc2n(n1)CCN2
survivor count (dose: 8.0 mg/kg/injection, schedule: Q03HX008 (ip), vehicle: saline): 8 of 8
survivor count (dose: 8.0 mg/kg/injection, schedule: Q03HX016 (ip), vehicle: saline): 7 of 8
survivor count (dose: 8.0 mg/kg/injection, schedule: Q03HX024 (ip), vehicle: saline): 8 of 8
survivor count (dose: 16.0 mg/kg/injection, schedule: Q03HX008 (ip), vehicle: saline): 7 of 8
survivor count (dose: 16.0 mg/kg/injection, schedule: Q03HX016 (ip), vehicle: saline): 8 of 8
survivor count (dose: 16.0 mg/kg/injection, schedule: Q03HX024 (ip), vehicle: saline): 8 of 8
survivor count (dose: 32.0 mg/kg/injection, schedule: Q01DX005 (ip), vehicle: saline): 8 of 8
survivor count (dose: 32.0 mg/kg/injection, schedule: Q03HX008 (ip), vehicle: saline): 7 of 8
survivor count (dose: 32.0 mg/kg/injection, schedule: Q03HX016 (ip), vehicle: saline): 6 of 8
survivor count (dose: 32.0 mg/kg/injection, schedule: Q03HX024 (ip), vehicle: saline): 8 of 8
survivor count (dose: 50.0 mg/kg/injection, schedule: Q08DX002 (ip), vehicle: clinical formulation): 8 of 8
survivor count (dose: 50.0 mg/kg/injection, schedule: Q08DX002 (ip), vehicle: water): 8 of 8
survivor count (dose: 64.0 mg/kg/injection, schedule: Q01DX005 (ip), vehicle: saline): 8 of 8
survivor count (dose: 64.0 mg/kg/injection, schedule: Q01DX009 (ip), vehicle: saline): 8 of 8
survivor count (dose: 64.0 mg/kg/injection, schedule: Q03HX008 (ip), vehicle: saline): 6 of 8
survivor count (dose: 64.0 mg/kg/injection, schedule: Q03HX016 (ip), vehicle: saline): 7 of 8
survivor count (dose: 64.0 mg/kg/injection, schedule: Q03HX024 (ip), vehicle: saline): 8 of 8
survivor count (dose: 100.0 mg/kg/injection, schedule: Q08DX002 (ip), vehicle: clinical formulation): 8 of 8
survivor count (dose: 100.0 mg/kg/injection, schedule: Q08DX002 (ip), vehicle: water): 8 of 8
survivor count (dose: 128.0 mg/kg/injection, schedule: Q01DX001 (ip), vehicle: saline): 8 of 8
survivor count (dose: 128.0 mg/kg/injection, schedule: Q01DX005 (ip), vehicle: saline): 8 of 8
survivor count (dose: 128.0 mg/kg/injection, schedule: Q01DX009 (ip), vehicle: saline): 8 of 8
survivor count (dose: 128.0 mg/kg/injection, schedule: Q03HX008 (ip), vehicle: saline): 0 of 8
survivor count (dose: 128.0 mg/kg/injection, schedule: Q03HX016 (ip), vehicle: saline): 2 of 8
survivor count (dose: 128.0 mg/kg/injection, schedule: Q03HX024 (ip), vehicle: saline): 1 of 8
survivor count (dose: 128.0 mg/kg/injection, schedule: Q04DX003 (ip), vehicle: saline): 8 of 8
survivor count (dose: 128.0 mg/kg/injection, schedule: Q08DX002 (ip), vehicle: saline): 8 of 8
survivor count (dose: 200.0 mg/kg/injection, schedule: Q08DX002 (ip), vehicle: clinical formulation): 8 of 8
survivor count (dose: 200.0 mg/kg/injection, schedule: Q08DX002 (ip), vehicle: water): 8 of 8
survivor count (dose: 256.0 mg/kg/injection, schedule: Q01DX001 (ip), vehicle: saline): 7 of 8
survivor count (dose: 256.0 mg/kg/injection, schedule: Q01DX005 (ip), vehicle: saline): 8 of 8
survivor count (dose: 256.0 mg/kg/injection, schedule: Q01DX009 (ip), vehicle: saline): 8 of 8
survivor count (dose: 256.0 mg/kg/injection, schedule: Q04DX003 (ip), vehicle: saline): 8 of 8
survivor count (dose: 256.0 mg/kg/injection, schedule: Q08DX002 (ip), vehicle: saline): 8 of 8
survivor count (dose: 400.0 mg/kg/injection, schedule: Q08DX002 (ip), vehicle: clinical formulation): 8 of 8
survivor count (dose: 400.0 mg/kg/injection, schedule: Q08DX002 (ip), vehicle: water): 8 of 8
survivor count (dose: 512.0 mg/kg/injection, schedule: Q01DX001 (ip), vehicle: saline): 8 of 8
survivor count (dose: 512.0 mg/kg/injection, schedule: Q01DX005 (ip), vehicle: saline): 0 of 8
survivor count (dose: 512.0 mg/kg/injection, schedule: Q01DX009 (ip), vehicle: saline): 1 of 8
survivor count (dose: 512.0 mg/kg/injection, schedule: Q04DX003 (ip), vehicle: saline): 7 of 8
survivor count (dose: 512.0 mg/kg/injection, schedule: Q08DX002 (ip), vehicle: saline): 8 of 8
survivor count (dose: 800.0 mg/kg/injection, schedule: Q08DX002 (ip), vehicle: clinical formulation): 8 of 8
survivor count (dose: 800.0 mg/kg/injection, schedule: Q08DX002 (ip), vehicle: water): 7 of 8
survivor count (dose: 1024.0 mg/kg/injection, schedule: Q01DX001 (ip), vehicle: saline): 5 of 8
survivor count (dose: 1024.0 mg/kg/injection, schedule: Q04DX003 (ip), vehicle: saline): 5 of 8
survivor count (dose: 1024.0 mg/kg/injection, schedule: Q08DX002 (ip), vehicle: saline): 5 of 8

C[C@]12CC[C@H](O)C[C@@]1(O)CC[C@@H]1[C@@H]2CC[C@]2(C)[C@@H](c3ccc(=O)oc3)C[C@H]3O[C@]132
survivor count (dose: 0.1 mg/kg/injection, schedule: Q01DX009 (ip), vehicle: saline + alcohol): 2 of 2
survivor count (dose: 1.0 mg/kg/injection, schedule: Q01DX009 (ip), vehicle: saline + alcohol): 2 of 2
survivor count (dose: 10.0 mg/kg/injection, schedule: Q01DX009 (ip), vehicle: saline + alcohol): 2 of 2
survivor count (dose: 50.0 mg/kg/injection, schedule: Q01DX009 (ip), vehicle: saline + alcohol): 0 of 2
survivor count (dose: 100.0 mg/kg/injection, schedule: Q01DX009 (ip), vehicle: saline + alcohol): 0 of 2
